PubChem BioAssay AID1688 (National Center for Advancing Translational Sciences (NCATS), 2009)
Hit rate of the full screen: of about 220,000 compounds, about 2,400 (1.1%) were called active. Inconclusive results, whose numbers are uncertain, are shown with a selection of clear calls. Calls come from the whole dose curve; as a rule, active = well fitted inhibition curve with a large enough effect; inconclusive = small, poorly fitted or top-dose-only effect, or effect the other way; inactive = no such curve, though single readings can be large or run the other way. Potencies beside an inconclusive call are fits to weak or partial responses and may not hold up.
% is set by controls: 0 for no effect and ±100 for the full control effect; potency is the fitted concentration of half-maximal effect.

Assay: qHTS Multiplex Assay to Identify Dual Action Probes in a Cell Model of Huntington: Aggregate Formation (GFP); note: nearly all actives have a fitted effect of over 60% in size
Conditions: PC12 HttQ103-GFP aggregates, Acumen cytometry, 40 h; activity change, negative = inhibition: at 46.1 µM (top of the series) unless noted
In short: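 Compounds (qHTS titration) were added to PC12 cells expressing an ecdysone-driven HTT exon 1 Q103–GFP fusion after induction with 100 nM tebufenozide. Aggregate formation was measured as GFP objects in cell lysates.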
For `CNC(=S)NNC(=O)c1cccc(C(F)(F)F)c1`, the “activity change, negative = inhibition” value was inactive: 7.68%.
For `COc1cc(/C=C2\OC(=O)c3c(OC)cccc32)ccc1O`, the “activity change, negative = inhibition” value was inactive: -3.98%.
In the case of `CCCCCCSc1nnc(-c2cnn(-c3ccccc3)c2-n2cccc2)n1C`, the Potency is reported as inconclusive: 20 µM [inhibitor, single point].
With `CC1CCc2sc(NC(=S)NC(=O)c3ccccc3)c(C#N)c2C1` (stereo unspecified) the “activity change, negative = inhibition” value was inactive: 16.1%.
With `O=C(c1cnn2c1NC(c1ccc(Br)cc1)CC2C(F)(F)F)N1CCN(C23CC4CC(CC(C4)C2)C3)CC1` (stereo unspecified) the Potency was inconclusive: 10 µM [inhibitor, partial curve, poor fit].
With `O=C(OCC(=O)N1CCN(C(=O)c2ccco2)CC1)c1sc2cc(F)ccc2c1Cl` the Potency was inconclusive: 0.316 µM [inhibitor, partial curve, poor fit].
With `O=C(CSc1nc(-c2ccccc2)c(-c2ccccc2)[nH]1)N1CCN(S(=O)(=O)c2ccccc2)CC1` the “activity change, negative = inhibition” value was inactive: -22%.
For `COc1cc(CC(=O)OCC(=O)Nc2ccc([N+](=O)[O-])cc2)cc(OC)c1OC`, the “activity change, negative = inhibition” value was inactive: 4.25%.
With `COc1cccc2cc(C(C)N(CCCN3CCOCC3)C(=O)Nc3ccc(Cl)cc3)oc12` (stereo unspecified) the Potency was inconclusive: 35.5 µM [inhibitor, single point].
In the case of `OC(CNC1CCCCC1)CN1CCN(CC(O)CNC2CCCCC2)CC1` (stereo unspecified), the Potency is reported as inconclusive: 5.62 µM [activator, single point].
In the case of `Cc1c(CNC2CCCC2)c(C(=O)O)c(C)n1Cc1ccccc1`, the Potency is reported as active: 0.794 µM.
With `CCOC(=O)C1(Cc2cccc(OC)c2)CCN(Cc2ccc(C)s2)CC1` the activity change, negative = inhibition was inactive: 2.49% [at 9.22 µM].
With `Cc1ccccc1NC(=O)N1CCN(S(=O)(=O)c2ccccc2)CC1` the activity change, negative = inhibition was inactive: 5.51% [at 9.22 µM].
With `O=S(=O)(c1ccc(Br)s1)N1CCNCC1` the activity change, negative = inhibition was inactive: -15.5% [at 9.22 µM].
With `CC(=O)N1CCc2cc(S(=O)(=O)Nc3cccc(C(F)(F)F)c3)ccc21` the Potency was inconclusive: 7.08 µM [inhibitor, partial curve].
In the case of `CC(/C=N/n1cnnc1)=C\c1ccco1`, the “activity change, negative = inhibition” value is reported as inactive: -2.83%.
With `c1csc(Cc2nn3c(-c4ccncc4)nnc3s2)c1` the Potency was active: 10 µM.
For `CC(C)=Cc1oc2ccc([N+](=O)[O-])cc2c1N1CC(C)OC(C)C1` (stereo unspecified), the “activity change, negative = inhibition” value was inactive: 6.71%.
In the case of `Cc1nc(N2CCC(C)CC2)c2c(C)c(C(=O)Nc3cc(F)ccc3C)sc2n1`, the Potency is reported as inconclusive: 5.62 µM [activator, single point].
For `CN(NS(=O)(=O)c1ccc(Br)cc1)c1nc(C(F)(F)F)nc2ccccc12`, the Potency was inconclusive: 17.8 µM [inhibitor, single point].
For `O=C(Nc1ccccc1)Nc1cccc(Cl)c1`, the Potency was inconclusive: 15.8 µM [inhibitor, single point].
In the case of `O=C(O)CCCN1C(=O)/C(=C/c2cn(-c3ccccc3)nc2-c2cccs2)SC1=S`, the Potency is reported as inconclusive: 35.5 µM [inhibitor, single point].
With `CCCCCCCCCCCCCC[N+](C)(C)C` the Potency was active: 15.8 µM.
In the case of `CC(C)C(NC(=O)c1ccccc1F)C(=O)Nc1nccs1` (stereo unspecified), the Potency is reported as inconclusive: 0.562 µM [inhibitor, full curve].
With `c1ccc2sc(NC3=NCN(Cc4ccc5c(c4)OCO5)CN3)nc2c1` the Potency was inconclusive: 2.51 µM [inhibitor, partial curve].
For `Cn1cccc1/C=N/NC(=O)Cc1cccc2ccccc12`, the Potency was inconclusive: 3.98 µM [inhibitor, partial curve].
With `COc1ccc(Nc2ncnc3c2cnn3Cc2ccccc2)cc1OC` the Potency was inconclusive: 8.91 µM [inhibitor, single point].
In the case of `CCOc1ccccc1NC(=S)N(CCN(C)C)C(C)c1ccncc1` (stereo unspecified), the “activity change, negative = inhibition” value is reported as inactive: -6%.
With `CNC(=O)COc1cccc(C(=O)NCc2ccccc2)c1` the Potency was inconclusive: 1.26 µM [inhibitor, single point].
In the case of `Cc1ccc(SCCC(=O)N2CCCC2)cc1`, the “activity change, negative = inhibition” value is reported as inactive: -20.4%.
For `COc1ccc(Cn2nnnc2C(c2ccccn2)N2CCN(c3cc(Cl)ccc3C)CC2)cc1` (stereo unspecified), the Potency was inconclusive: 20 µM [inhibitor, single point].
For `CCOc1cc(/C=N/NC(=O)c2cccnc2)ccc1OCC(N)=O`, the Potency was inconclusive: 35.5 µM [inhibitor, single point].
For `CC1CCN(C(=O)CSc2nc3ccccc3c(=O)n2Cc2ccc3c(c2)OCO3)CC1`, the Potency was inconclusive: 10 µM [inhibitor, single point].
For `O=C(NCCCN1CCOCC1)C(C(=O)c1ccccc1)n1ccccc1=O` (stereo unspecified), the Potency was inconclusive: 1.26 µM [activator, single point].
In the case of `Cc1ccc(OCc2ccc(C(=O)Nc3nc4ccccc4n3Cc3ccccc3)o2)c([N+](=O)[O-])c1`, the Potency is reported as inconclusive: 7.94 µM [inhibitor, partial curve, poor fit].
In the case of `CCOC(=O)Cn1nc(-c2ccccc2)ccc1=O`, the Potency is reported as inconclusive: 1.78 µM [activator, partial curve, poor fit].
